The record followed here is paper PMC13304329.

Protein sequences, listed by entry. Tags and fused reporters are not part of them.
UniProt Q5S007: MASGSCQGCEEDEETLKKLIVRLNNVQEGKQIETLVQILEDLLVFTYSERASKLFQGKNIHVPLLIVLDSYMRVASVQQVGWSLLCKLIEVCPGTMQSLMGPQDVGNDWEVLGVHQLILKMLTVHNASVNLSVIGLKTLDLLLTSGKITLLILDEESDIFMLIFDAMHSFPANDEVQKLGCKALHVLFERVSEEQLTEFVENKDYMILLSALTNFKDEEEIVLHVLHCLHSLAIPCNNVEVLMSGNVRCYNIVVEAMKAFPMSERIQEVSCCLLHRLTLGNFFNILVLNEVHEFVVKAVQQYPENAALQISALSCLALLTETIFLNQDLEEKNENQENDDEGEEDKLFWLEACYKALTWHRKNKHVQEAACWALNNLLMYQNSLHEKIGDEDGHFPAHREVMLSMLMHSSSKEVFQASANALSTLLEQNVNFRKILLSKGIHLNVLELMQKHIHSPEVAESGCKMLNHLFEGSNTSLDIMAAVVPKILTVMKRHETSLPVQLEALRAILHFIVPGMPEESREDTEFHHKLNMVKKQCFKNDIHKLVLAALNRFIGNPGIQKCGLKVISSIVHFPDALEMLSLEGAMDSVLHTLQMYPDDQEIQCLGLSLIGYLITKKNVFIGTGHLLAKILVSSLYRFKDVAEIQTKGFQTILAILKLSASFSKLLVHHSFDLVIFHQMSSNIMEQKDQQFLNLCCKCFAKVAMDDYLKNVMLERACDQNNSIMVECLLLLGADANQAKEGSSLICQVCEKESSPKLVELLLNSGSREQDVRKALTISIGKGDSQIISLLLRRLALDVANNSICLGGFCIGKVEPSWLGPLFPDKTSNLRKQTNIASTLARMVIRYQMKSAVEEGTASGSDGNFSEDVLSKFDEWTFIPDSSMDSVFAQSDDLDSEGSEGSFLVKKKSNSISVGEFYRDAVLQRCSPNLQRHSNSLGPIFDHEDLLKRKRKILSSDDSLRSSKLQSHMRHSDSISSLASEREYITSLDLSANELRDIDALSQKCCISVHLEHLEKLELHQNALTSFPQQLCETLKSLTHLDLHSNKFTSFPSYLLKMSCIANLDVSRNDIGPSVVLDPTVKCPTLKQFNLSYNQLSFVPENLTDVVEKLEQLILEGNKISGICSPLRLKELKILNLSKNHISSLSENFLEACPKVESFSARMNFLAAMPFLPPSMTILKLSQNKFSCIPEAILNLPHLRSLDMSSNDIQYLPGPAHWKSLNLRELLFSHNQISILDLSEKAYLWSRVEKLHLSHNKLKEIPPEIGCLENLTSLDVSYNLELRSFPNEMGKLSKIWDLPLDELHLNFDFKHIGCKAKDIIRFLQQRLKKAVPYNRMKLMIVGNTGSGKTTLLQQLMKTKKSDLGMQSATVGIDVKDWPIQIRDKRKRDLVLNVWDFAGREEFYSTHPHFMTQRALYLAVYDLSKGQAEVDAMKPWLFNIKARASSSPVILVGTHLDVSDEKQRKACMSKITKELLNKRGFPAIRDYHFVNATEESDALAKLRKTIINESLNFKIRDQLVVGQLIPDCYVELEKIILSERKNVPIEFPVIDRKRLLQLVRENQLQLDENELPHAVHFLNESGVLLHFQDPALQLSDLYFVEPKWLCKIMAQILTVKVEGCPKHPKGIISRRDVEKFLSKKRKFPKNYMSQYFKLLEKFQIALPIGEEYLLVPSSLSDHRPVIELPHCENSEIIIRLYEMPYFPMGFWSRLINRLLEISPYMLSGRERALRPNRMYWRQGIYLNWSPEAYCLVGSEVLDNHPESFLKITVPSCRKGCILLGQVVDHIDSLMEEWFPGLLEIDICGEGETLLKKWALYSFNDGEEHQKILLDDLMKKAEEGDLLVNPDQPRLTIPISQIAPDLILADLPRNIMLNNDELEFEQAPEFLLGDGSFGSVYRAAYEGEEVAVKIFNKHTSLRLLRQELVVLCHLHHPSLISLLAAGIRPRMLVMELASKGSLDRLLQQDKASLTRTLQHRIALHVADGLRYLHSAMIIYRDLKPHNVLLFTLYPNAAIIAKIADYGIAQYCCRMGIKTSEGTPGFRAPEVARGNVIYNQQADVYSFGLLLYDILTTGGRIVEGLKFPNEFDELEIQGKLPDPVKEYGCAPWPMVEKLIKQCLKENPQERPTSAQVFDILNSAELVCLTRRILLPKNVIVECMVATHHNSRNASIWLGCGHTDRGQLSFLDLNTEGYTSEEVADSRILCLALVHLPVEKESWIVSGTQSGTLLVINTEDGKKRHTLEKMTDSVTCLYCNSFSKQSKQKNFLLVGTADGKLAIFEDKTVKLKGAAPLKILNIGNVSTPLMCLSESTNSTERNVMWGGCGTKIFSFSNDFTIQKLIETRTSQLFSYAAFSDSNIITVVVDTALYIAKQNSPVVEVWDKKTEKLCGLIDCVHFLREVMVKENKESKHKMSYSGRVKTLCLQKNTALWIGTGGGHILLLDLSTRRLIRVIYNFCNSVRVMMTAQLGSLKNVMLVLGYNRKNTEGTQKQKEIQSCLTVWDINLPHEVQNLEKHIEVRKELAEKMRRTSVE
UniProt Q9UHB6: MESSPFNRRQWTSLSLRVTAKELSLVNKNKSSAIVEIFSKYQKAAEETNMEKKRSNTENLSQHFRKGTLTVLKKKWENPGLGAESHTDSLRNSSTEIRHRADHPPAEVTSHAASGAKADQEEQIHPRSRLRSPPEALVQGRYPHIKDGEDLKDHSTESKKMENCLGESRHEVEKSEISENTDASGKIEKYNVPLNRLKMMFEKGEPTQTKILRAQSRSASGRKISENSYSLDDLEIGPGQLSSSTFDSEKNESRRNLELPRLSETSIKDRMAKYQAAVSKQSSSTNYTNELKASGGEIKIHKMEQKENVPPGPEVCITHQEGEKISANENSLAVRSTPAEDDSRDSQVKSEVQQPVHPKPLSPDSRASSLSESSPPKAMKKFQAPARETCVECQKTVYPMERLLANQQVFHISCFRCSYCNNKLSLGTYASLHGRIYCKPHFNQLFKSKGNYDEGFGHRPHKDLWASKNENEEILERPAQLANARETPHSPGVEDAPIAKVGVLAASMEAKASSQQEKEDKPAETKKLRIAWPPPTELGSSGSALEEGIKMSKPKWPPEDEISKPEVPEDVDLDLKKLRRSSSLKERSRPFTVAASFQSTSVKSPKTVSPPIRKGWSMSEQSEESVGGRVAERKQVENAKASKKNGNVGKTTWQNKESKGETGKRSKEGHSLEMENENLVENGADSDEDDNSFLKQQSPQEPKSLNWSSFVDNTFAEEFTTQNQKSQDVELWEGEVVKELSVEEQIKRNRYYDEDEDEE

First the molecules themselves.
B1: Centrosomal protein 43 (protein, UniProt O95684 1-399)
chain: MAATAAAVVAEEDTELRDLLVQTLENSGVLNRIKAELRAAVFLALEEQEKVENKTPLVNESLKKFLNTKDGRLVASLVAEFLQFFNLDFTLAVFQPETSTLQGLEGRENLARDLGIIEAEGTVGGPLLLEVIRRCQQKEKGPTTGEGALDLSDVHSPPKSPEGKTSAQTTPSKIPRYKGQGKKKTSGQKAGDKKANDEANQSDTSVSLSEPKSKSSLHLLSHETKIGSFLSNRTLDGKDKAGLCPDEDDMEGDSFFDDPIPKPEKTYGLRKEPRKQAGSLASLSDAPPLKSGLSSLAGAPSLKDSESKRGNTVLKDLKLISDKIGSLGLGTGEDDDYVDDFNSTSHRSEKSEISIGEEIEEDLSVEIDDINTSDKLDDLTQDLTVSQLSDVADYLEDVA
B2: Deubiquitinating protein VCPIP1 (enzyme, UniProt Q96JH7 1-1222)
chain: MSQPPPPPPPLPPPPPPPEAPQTPSSLASAAASGGLLKRRDRRILSGSCPDPKCQARLFFPASGSVSIECTECGQRHEQQQLLGVEEVTDPDVVLHNLLRNALLGVTGAPKKNTELVKVMGLSNYHCKLLSPILARYGMDKQTGRAKLLRDMNQGELFDCALLGDRAFLIEPEHVNTVGYGKDRSGSLLYLHDTLEDIKRANKSQECLIPVHVDGDGHCLVHAVSRALVGRELFWHALRENLKQHFQQHLARYQALFHDFIDAAEWEDIINECDPLFVPPEGVPLGLRNIHIFGLANVLHRPIILLDSLSGMRSSGDYSATFLPGLIPAEKCTGKDGHLNKPICIAWSSSGRNHYIPLVGIKGAALPKLPMNLLPKAWGVPQDLIKKYIKLEEDGGCVIGGDRSLQDKYLLRLVAAMEEVFMDKHGIHPSLVADVHQYFYRRTGVIGVQPEEVTAAAKKAVMDNRLHKCLLCGALSELHVPPEWLAPGGKLYNLAKSTHGQLRTDKNYSFPLNNLVCSYDSVKDVLVPDYGMSNLTACNWCHGTSVRKVRGDGSIVYLDGDRTNSRSTGGKCGCGFKHFWDGKEYDNLPEAFPITLEWGGRVVRETVYWFQYESDSSLNSNVYDVAMKLVTKHFPGEFGSEILVQKVVHTILHQTAKKNPDDYTPVNIDGAHAQRVGDVQGQESESQLPTKIILTGQKTKTLHKEELNMSKTERTIQQNITEQASVMQKRKTEKLKQEQKGQPRTVSPSTIRDGPSSAPATPTKAPYSPTTSKEKKIRITTNDGRQSMVTLKSSTTFFELQESIAREFNIPPYLQCIRYGFPPKELMPPQAGMEKEPVPLQHGDRITIEILKSKAEGGQSAAAHSAHTVKQEDIAVTGKLSSKELQEQAEKEMYSLCLLATLMGEDVWSYAKGLPHMFQQGGVFYSIMKKTMGMADGKHCTFPHLPGKTFVYNASEDRLELCVDAAGHFPIGPDVEDLVKEAVSQVRAEATTRSRESSPSHGLLKLGSGGVVKKKSEQLHNVTAFQGKGHSLGTASGNPHLDPRARETSVVRKHNTGTDFSNSSTKTEPSVFTASSSNSELIRIAPGVVTMRDGRQLDPDLVEAQRKKLQEMVSSIQASMDRHLRDQSTEQSPSDLPQRKTEVVSSSAKSGSLQTGLPESFPLTGGTENLNTETTDGCVADALGAAFATRSKAQRGNSVEELEEMDSQDAEMTNTTEPMDHS
B3: Centrosomal protein of 85 kDa-like (protein, UniProt Q5SZL2 1-805)
chain: MWGRFLAPEASGRDSPGGARSFPAGPDYSSAWLPANESLWQATTVPSNHRNNHIRRHSIASDSGDTGIGTSCSDSVEDHSTSSGTLSFKPSQSLITLPTAHVMPSNSSASISKLRESLTPDGSKWSTSLMQTLGNHSRGEQDSSLDMKDFRPLRKWSSLSKLTAPDNCGQGGTVCREESRNGLEKIGKAKALTSQLRTIGPSCLHDSMEMLRLEDKEINKKRSSTLDCKYKFESCSKEDFRASSSTLRRQPVDMTYSALPESKPIMTSSEAFEPPKYLMLGQQAVGGVPIQPSVRTQMWLTEQLRTNPLEGRNTEDSYSLAPWQQQQIEDFRQGSETPMQVLTGSSRQSYSPGYQDFSKWESMLKIKEGLLRQKEIVIDRQKQQITHLHERIRDNELRAQHAMLGHYVNCEDSYVASLQPQYENTSLQTPFSEESVSHSQQGEFEQKLASTEKEVLQLNEFLKQRLSLFSEEKKKLEEKLKTRDRYISSLKKKCQKESEQNKEKQRRIETLEKYLADLPTLDDVQSQSLQLQILEEKNKNLQEALIDTEKKLEEIKKQCQDKETQLICQKKKEKELVTTVQSLQQKVERCLEDGIRLPMLDAKQLQNENDNLRQQNETASKIIDSQQDEIDRMILEIQSMQGKLSKEKLTTQKMMEELEKKERNVQRLTKALLENQRQTDETCSLLDQGQEPDQSRQQTVLSKRPLFDLTVIDQLFKEMSCCLFDLKALCSILNQRAQGKEPNLSLLLGIRSMNCSAEETENDHSTETLTKKLSDVCQLRRDIDELRTTISDRYAQDMGDNCITQ
B4: TRMT1-like protein (protein, UniProt Q7Z2T5 1-733)
chain: MENMAEEELLPLEKEEVEVAQVQVPTPARDSAGVPAPAPDSALDSAPTPASAPAPAPALAQAPALSPSLASAPEEAKSKRHISIQRQLADLENLAFVTDGNFDSASSLNSDNLDAGNRQACPLCPKEKFRACNSHKLRRHLQNLHWKVSVEFEGYRMCICHLPCRPVKPNIIGEQITSKMGAHYHCIICSATITRRTDMLGHVRRHMNKGETKSSYIAASTAKPPKEILKEADTDVQVCPNYSIPQKTDSYFNPKMKLNRQLIFCTLAALAEERKPLECLDAFGATGIMGLQWAKHLGNAVKVTINDLNENSVTLIQENCHLNKLKVVVDSKEKEKSDDILEEGEKNLGNIKVTKMDANVLMHLRSFDFIHLDPFGTSVNYLDSAFRNIRNLGIVSVTSTDISSLYAKAQHVARRHYGCNIVRTEYYKELAARIVVAAVARAAARCNKGIEVLFAVALEHFVLVVVRVLRGPTSADETAKKIQYLIHCQWCEERIFQKDGNMVEENPYRQLPCNCHGSMPGKTAIELGPLWSSSLFNTGFLKRMLFESLHHGLDDIQTLIKTLIFESECTPQSQFSIHASSNVNKQEENGVFIKTTDDTTTDNYIAQGKRKSNEMITNLGKKQKTDVSTEHPPFYYNIHRHSIKGMNMPKLKKFLCYLSQAGFRVSRTHFDPMGVRTDAPLMQFKSILLKYSTPTYTGGQSESHVQSASEDTVTERVEMSVNDKAEASGCRRW
B5: Dermcidin (protein, UniProt P81605 20-110)
chain: YDPEAASAPGSGNPCHEASAAQKENAGEDPGLARQAPKPRKQRSSLLEKGLDGAKKAVGGLGKLGKDAVEDLESVGKGAVHDVKDVLDSVL
B6: Centrosomal protein of 131 kDa (protein, UniProt Q9UPN4 1-1083)
chain: MKGTRAIGSVPERSPAGVDLSLTGLPPPVSRRPGSAATTKPIVRSVSVVTGSEQKRKVLEATGPGGSQAINNLRRSNSTTQVSQPRSGSPRPTEPTDFLMLFEGSPSGKKRPASLSTAPSEKGATWNVLDDQPRGFTLPSNARSSSALDSPAGPRRKECTVALAPNFTANNRSNKGAVGNCVTTMVHNRYTPSERAPPLKSSNQTAPSLNNIIKAATCEGSESSGFGKLPKNVSSATHSARNNTGGSTGLPRRKEVTEEEAERFIHQVNQATVTIQRWYRHQVQRRGAGAARLEHLLQAKREEQRQRSGEGTLLDLHQQKEAARRKAREEKARQARRAAIQELQQKRALRAQKASTAERGPPENPRETRVPGMRQPAQELSPTPGGTAHQALKANNTGGGLPAAGPGDRCLPTSDSSPEPQQPPEDRTQDVLAQDAAGDNLEMMAPSRGSAKSRGPLEELLHTLQLLEKEPDVLPRPRTHHRGRYAWASEVTTEDDASSLTADNLEKFGKLSAFPEPPEDGTLLSEAKLQSIMSFLDEMEKSGQDQLDSQQEGWVPEAGPGPLELGSEVSTSVMRLKLEVEEKKQAMLLLQRALAQQRDLTARRVKETEKALSRQLQRQREHYEATIQRHLAFIDQLIEDKKVLSEKCEAVVAELKQEDQRCTERVAQAQAQHELEIKKLKELMSATEKARREKWISEKTKKIKEVTVRGLEPEIQKLIARHKQEVRRLKSLHEAELLQSDERASQRCLRQAEELREQLEREKEALGQQERERARQRFQQHLEQEQWALQQQRQRLYSEVAEERERLGQQAARQRAELEELRQQLEESSSALTRALRAEFEKGREEQERRHQMELNTLKQQLELERQAWEAGRTRKEEAWLLNREQELREEIRKGRDKEIELVIHRLEADMALAKEESEKAAESRIKRLRDKYEAELSELEQSERKLQERCSELKGQLGEAEGENLRLQGLVRQKERALEDAQAVNEQLSSERSNLAQVIRQEFEDRLAASEEETRQAKAELATLQARQQLELEEVHRRVKTALARKEEAVSSLRTQHEAAVKRADHLEELLEQHRRPTPSTK
B7: Coiled-coil domain-containing protein 14 (protein, UniProt Q49A88 1-953)
chain: MKRGIRRDPFRKRKLGGRAKKVREPTAVNSFYREASLPSVWASLRRREMVRSGARPGQVLSSGRHTGPAKLTNGKKATYLRKIPRFNADSGYSIHSDSESQAETVHGLDGCASLLRDILRNEDSGSETAYLENRSNSRPLESKRYGSKKKRHEKHTIPLVVQKETSSSDNKKQIPNEASARSERDTSDLEQNWSLQDHYRMYSPIIYQALCEHVQTQMSLMNDLTSKNIPNGIPAVPCHAPSHSESQATPHSSYGLCTSTPVWSLQRPPCPPKVHSEVQTDGNSQFASQGKTVSATCTDVLRNSFNTSPGVPCSLPKTDISAIPTLQQLGLVNGILPQQGIHKETDLLKCIQTYLSLFRSHGKETHLDSQTHRSPTQSQPAFLATNEEKCAREQIREATSERKDLNIHVRDTKTVKDVQKAKNVNKTAEKVRIIKYLLGELKALVAEQEDSEIQRLITEMEACISVLPTVSGNTDIQVEIALAMQPLRSENAQLRRQLRILNQQLREQQKTQKPSGAVDCNLELFSLQSLNMSLQNQLEESLKSQELLQSKNEELLKVIENQKDENKKFSSIFKDKDQTILENKQQYDIEITRIKIELEEALVNVKSSQFKLETAEKENQILGITLRQRDAEVTRLRELTRTLQTSMAKLLSDLSVDSARCKPGNNLTKSLLNIHDKQLQHDPAPAHTSIMSYLNKLETNYSFTHSEPLSTIKNEETIEPDKTYENVLSSRGPQNSNTRGMEEASAPGIISALSKQDSDEGSETMALIEDEHNLDNTIYIPFARSTPEKKSPLSKRLSPQPQIRAATTQLVSNSGLAVSGKENKLCTPVICSSSTKEAEDAPEKLSRASDMKDTQLLKKIKEAIGKIPAATKEPEEQTACHGPSGCLSNSLQVKGNTVCDGSVFTSDLMSDWSISSFSTFTSRDEQDFRNGLAALDANIARLQKSLRTGLLEK

No constants are given. Whether binding was seen depends on the method and setting. Binding seen in cells or lysates may run through a third protein. Here binding means that the protein was enriched with, or labelled near, the bait; the list need not be complete.

For the first test, the target named is LRRK2 with an N-terminal BioID tag (BioID1-LRRK2, BioID2-LRRK2 or miniTurbo-LRRK2; pooled 'BioID set') (human) (UniProt Q5S007). The test is described as follows: proximity labelling; BioID1-, BioID2- or miniTurbo-LRRK2 transiently expressed in HEK293T against the tag-only control; 50 uM biotin (up to 16 h; miniTurbo 2 h after overnight starvation); Strep-Tactin enrichment, LC-MSMS; SAINTexpress and CRAPome filter, hits of the three tags unified ('BioID set').
In the case of B1, the binding result was “binds”.
On the same count and under the same terms, the entry for B2 is “binds”; for B3 it is “binds”.
Still for that read-out and setting: then B4, with “binds”.

The target of the next test is miniTurbo-LRRK2 (human) (UniProt Q5S007). The test is described as follows: proximity labelling; HEK293 stably expressing mT-LRRK2; 1 uM MLi-2 against DMSO, 1 h prior to and during 2 h of 50 uM biotin; Strep-Tactin enrichment, LC-MSMS, LFQ with FDR-controlled t test.
In the case of “LIM domain and actin-binding protein 1 (from UniProt Q9UHB6 1-759)”, the binding entry is “binds”.
On the same count and under the same terms, then B5, with “binds”; and B6, with “binds”; and B7, with “binds”.
